{
  "source": "the supplement of paper PMC6411743",
  "test_in_all_cases": "NP40-soluble protein abundance relative to vehicle (solubility fold change) (ratio); higher = more soluble protein in presence of GTP",
  "key": {"UQCRFS1": {"molecular_target": "T1, UQCRFS1 (UniProt P47985)", "T1 sequence (whole entry)": "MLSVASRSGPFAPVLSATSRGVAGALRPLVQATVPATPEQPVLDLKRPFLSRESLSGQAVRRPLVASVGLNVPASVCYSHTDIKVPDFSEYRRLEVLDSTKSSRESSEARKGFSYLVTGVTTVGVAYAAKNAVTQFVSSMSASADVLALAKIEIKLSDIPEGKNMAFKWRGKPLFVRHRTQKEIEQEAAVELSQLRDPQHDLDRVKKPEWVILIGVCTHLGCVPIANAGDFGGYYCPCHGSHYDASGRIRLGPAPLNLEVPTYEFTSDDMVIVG", "procedure,_shortened": "(§1)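 Jurkat crude lysate prepared with a Dounce homogeniser was treated at eight concentrations spanning 0.1 to 10 mM, 10 min at room temperature then 3 min at 37 °C. Solubilisation with 0.8% NP40 and benzonase and ultracentrifugation preceded TMT labelling of the supernatant for LC-MS/MS. Fold change against the detergent-processed vehicle was determined per replicate from vsn-normalised intensities, across three independent experiments.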"}, "[1]": {"molecular_target": "T2, UniProt P31350 and related entries", "T2 sequence (whole entry)": "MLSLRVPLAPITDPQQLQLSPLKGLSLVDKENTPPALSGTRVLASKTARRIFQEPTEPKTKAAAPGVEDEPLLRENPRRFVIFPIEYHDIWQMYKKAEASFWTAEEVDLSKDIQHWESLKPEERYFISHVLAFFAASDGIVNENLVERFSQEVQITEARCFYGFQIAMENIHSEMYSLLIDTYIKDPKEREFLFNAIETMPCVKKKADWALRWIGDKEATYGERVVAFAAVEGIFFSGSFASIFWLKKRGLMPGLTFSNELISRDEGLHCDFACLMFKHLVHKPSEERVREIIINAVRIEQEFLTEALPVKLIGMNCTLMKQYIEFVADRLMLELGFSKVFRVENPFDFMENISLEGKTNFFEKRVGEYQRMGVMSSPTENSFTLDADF", "procedure,_shortened": "as §1"}, "[2]": {"molecular_target": "T3, UniProt P32856 and related entries", "T3 sequence (whole entry)": "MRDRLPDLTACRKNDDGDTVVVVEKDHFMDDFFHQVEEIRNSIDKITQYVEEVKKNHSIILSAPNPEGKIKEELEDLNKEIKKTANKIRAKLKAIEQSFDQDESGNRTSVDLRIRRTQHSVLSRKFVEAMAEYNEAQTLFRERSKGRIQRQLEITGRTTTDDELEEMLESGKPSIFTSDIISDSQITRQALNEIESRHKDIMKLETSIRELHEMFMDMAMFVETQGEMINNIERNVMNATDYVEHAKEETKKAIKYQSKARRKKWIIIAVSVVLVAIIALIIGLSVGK", "procedure,_shortened": "as §1"}, "UniProt P35626": {"molecular_target": "T4, UniProt P35626", "T4 sequence (whole entry)": "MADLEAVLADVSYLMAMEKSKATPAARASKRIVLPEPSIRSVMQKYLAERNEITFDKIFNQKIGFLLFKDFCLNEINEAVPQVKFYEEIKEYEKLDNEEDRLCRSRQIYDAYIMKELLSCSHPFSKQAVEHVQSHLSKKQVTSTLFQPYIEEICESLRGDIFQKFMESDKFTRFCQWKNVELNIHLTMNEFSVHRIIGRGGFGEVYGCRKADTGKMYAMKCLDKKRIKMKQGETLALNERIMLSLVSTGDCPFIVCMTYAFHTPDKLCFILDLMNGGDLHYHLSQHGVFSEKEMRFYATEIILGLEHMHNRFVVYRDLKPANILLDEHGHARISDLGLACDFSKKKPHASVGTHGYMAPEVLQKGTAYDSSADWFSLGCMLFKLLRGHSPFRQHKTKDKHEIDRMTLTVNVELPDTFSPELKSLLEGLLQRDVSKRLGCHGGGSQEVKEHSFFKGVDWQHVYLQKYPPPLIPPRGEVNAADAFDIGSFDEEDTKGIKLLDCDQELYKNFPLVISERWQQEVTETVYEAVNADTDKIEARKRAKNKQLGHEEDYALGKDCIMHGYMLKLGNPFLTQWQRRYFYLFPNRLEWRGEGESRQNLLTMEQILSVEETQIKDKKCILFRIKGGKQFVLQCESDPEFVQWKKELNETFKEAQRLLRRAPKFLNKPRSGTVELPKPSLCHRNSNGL", "procedure,_shortened": "as §1"}, "[3]": {"molecular_target": "T5, UniProt P42224 and related entries", "T5 sequence (whole entry)": "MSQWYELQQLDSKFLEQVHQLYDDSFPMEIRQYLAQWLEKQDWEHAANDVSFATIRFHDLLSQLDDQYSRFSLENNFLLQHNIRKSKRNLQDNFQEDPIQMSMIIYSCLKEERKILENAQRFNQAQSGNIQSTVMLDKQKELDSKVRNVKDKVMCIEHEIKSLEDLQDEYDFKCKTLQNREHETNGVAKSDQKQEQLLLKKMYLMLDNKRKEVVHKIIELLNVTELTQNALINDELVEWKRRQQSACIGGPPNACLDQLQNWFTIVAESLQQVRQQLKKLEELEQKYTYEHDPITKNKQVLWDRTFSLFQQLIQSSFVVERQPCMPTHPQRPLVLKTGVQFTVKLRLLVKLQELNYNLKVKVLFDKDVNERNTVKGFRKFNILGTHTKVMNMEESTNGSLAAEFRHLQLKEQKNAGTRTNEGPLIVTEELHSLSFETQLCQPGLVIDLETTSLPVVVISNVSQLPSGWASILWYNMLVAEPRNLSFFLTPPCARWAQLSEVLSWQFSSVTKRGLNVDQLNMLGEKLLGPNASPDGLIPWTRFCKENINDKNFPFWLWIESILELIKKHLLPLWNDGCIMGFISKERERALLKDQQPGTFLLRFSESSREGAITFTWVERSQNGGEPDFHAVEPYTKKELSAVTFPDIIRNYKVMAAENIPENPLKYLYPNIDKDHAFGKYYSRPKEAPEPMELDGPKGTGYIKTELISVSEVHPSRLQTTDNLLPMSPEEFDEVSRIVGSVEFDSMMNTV", "procedure,_shortened": "as §1"}, "WAS": {"molecular_target": "T6, WAS (UniProt P42768)", "T6 sequence (whole entry)": "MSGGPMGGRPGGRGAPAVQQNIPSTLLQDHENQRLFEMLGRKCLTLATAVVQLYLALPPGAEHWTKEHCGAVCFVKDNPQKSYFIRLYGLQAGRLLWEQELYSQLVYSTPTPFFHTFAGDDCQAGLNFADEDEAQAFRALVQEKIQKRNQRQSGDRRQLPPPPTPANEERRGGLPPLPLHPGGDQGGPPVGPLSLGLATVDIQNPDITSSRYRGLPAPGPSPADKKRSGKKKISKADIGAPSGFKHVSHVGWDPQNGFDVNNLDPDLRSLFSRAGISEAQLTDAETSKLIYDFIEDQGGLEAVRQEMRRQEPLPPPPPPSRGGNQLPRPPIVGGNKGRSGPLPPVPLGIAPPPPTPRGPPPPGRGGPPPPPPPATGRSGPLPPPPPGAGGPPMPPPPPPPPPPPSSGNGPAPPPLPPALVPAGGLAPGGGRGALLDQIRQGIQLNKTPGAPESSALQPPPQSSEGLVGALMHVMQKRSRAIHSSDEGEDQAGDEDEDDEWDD", "procedure,_shortened": "as §1"}},
  "note": "± gives the standard deviation of the averaged measurements. Some of the results follow.",
  "data": [
    {"smiles": "Nc1nc2c(ncn2[C@@H]2O[C@H](COP(=O)(O)OP(=O)(O)OP(=O)(O)O)[C@@H](O)[C@H]2O)c(=O)[nH]1", "note": "[guanosine triphosphate]", "values": [
      {"measurement": "NP40-soluble protein abundance", "setting": "UQCRFS1; concentration: 4mM", "value": "0.898 ± 0.035"},
      {"measurement": "NP40-soluble protein abundance", "setting": "UQCRFS1; concentration: 6mM", "value": "0.922 ± 0.019"},
      {"measurement": "NP40-soluble protein abundance", "setting": "UQCRFS1; concentration: 8mM", "value": "0.93 ± 0.016"},
      {"measurement": "NP40-soluble protein abundance", "setting": "UQCRFS1; concentration: 10mM", "value": "0.875 ± 0.051"},
      {"measurement": "NP40-soluble protein abundance", "setting": "[1]; concentration: 0.1mM", "value": "0.975 ± 0.043"},
      {"measurement": "NP40-soluble protein abundance", "setting": "[1]; concentration: 0.5mM", "value": "0.963 ± 0.028"},
      {"measurement": "NP40-soluble protein abundance", "setting": "[1]; concentration: 1mM", "value": "0.905 ± 0.038"},
      {"measurement": "NP40-soluble protein abundance", "setting": "[1]; concentration: 2mM", "value": "0.894 ± 0.012"},
      {"measurement": "NP40-soluble protein abundance", "setting": "[1]; concentration: 4mM", "value": "0.868 ± 0.023"},
      {"measurement": "NP40-soluble protein abundance", "setting": "[1]; concentration: 6mM", "value": "0.858 ± 0.018"},
      {"measurement": "NP40-soluble protein abundance", "setting": "[1]; concentration: 8mM", "value": "0.838 ± 0.031"},
      {"measurement": "NP40-soluble protein abundance", "setting": "[1]; concentration: 10mM", "value": "0.834 ± 0.021"},
      {"measurement": "NP40-soluble protein abundance", "setting": "[2]; concentration: 0.1mM", "value": "1.08 ± 0.085"},
      {"measurement": "NP40-soluble protein abundance", "setting": "[2]; concentration: 0.5mM", "value": "0.952 ± 0.018"},
      {"measurement": "NP40-soluble protein abundance", "setting": "[2]; concentration: 1mM", "value": "1.04 ± 0.1"},
      {"measurement": "NP40-soluble protein abundance", "setting": "[2]; concentration: 2mM", "value": "1.04 ± 0.14"},
      {"measurement": "NP40-soluble protein abundance", "setting": "[2]; concentration: 4mM", "value": "0.916 ± 0.054"},
      {"measurement": "NP40-soluble protein abundance", "setting": "[2]; concentration: 6mM", "value": "1.04 ± 0.035"},
      {"measurement": "NP40-soluble protein abundance", "setting": "[2]; concentration: 8mM", "value": "0.88 ± 0.051"},
      {"measurement": "NP40-soluble protein abundance", "setting": "[2]; concentration: 10mM", "value": "0.86 ± 0.15"},
      {"measurement": "NP40-soluble protein abundance", "setting": "UniProt P35626; concentration: 0.1mM", "value": "1.05 ± 0.097"},
      {"measurement": "NP40-soluble protein abundance", "setting": "UniProt P35626; concentration: 0.5mM", "value": "1.05 ± 0.085"},
      {"measurement": "NP40-soluble protein abundance", "setting": "UniProt P35626; concentration: 1mM", "value": "0.943 ± 0.1"},
      {"measurement": "NP40-soluble protein abundance", "setting": "UniProt P35626; concentration: 2mM", "value": "0.96 ± 0.066"},
      {"measurement": "NP40-soluble protein abundance", "setting": "UniProt P35626; concentration: 4mM", "value": "0.926 ± 0.077"},
      {"measurement": "NP40-soluble protein abundance", "setting": "UniProt P35626; concentration: 6mM", "value": "0.969 ± 0.035"},
      {"measurement": "NP40-soluble protein abundance", "setting": "UniProt P35626; concentration: 8mM", "value": "0.926 ± 0.025"},
      {"measurement": "NP40-soluble protein abundance", "setting": "UniProt P35626; concentration: 10mM", "value": "0.878 ± 0.062"},
      {"measurement": "NP40-soluble protein abundance", "setting": "[3]; concentration: 0.1mM", "value": "1.02 ± 0.033"},
      {"measurement": "NP40-soluble protein abundance", "setting": "[3]; concentration: 0.5mM", "value": "1.01 ± 0.025"},
      {"measurement": "NP40-soluble protein abundance", "setting": "[3]; concentration: 1mM", "value": "0.972 ± 0.034"},
      {"measurement": "NP40-soluble protein abundance", "setting": "[3]; concentration: 2mM", "value": "0.941 ± 0.045"},
      {"measurement": "NP40-soluble protein abundance", "setting": "[3]; concentration: 4mM", "value": "0.928 ± 0.045"},
      {"measurement": "NP40-soluble protein abundance", "setting": "[3]; concentration: 6mM", "value": "0.921 ± 0.06"},
      {"measurement": "NP40-soluble protein abundance", "setting": "[3]; concentration: 8mM", "value": "0.926 ± 0.025"},
      {"measurement": "NP40-soluble protein abundance", "setting": "[3]; concentration: 10mM", "value": "0.875 ± 0.053"},
      {"measurement": "NP40-soluble protein abundance", "setting": "WAS; concentration: 0.1mM", "value": "0.925 ± 0.064"},
      {"measurement": "NP40-soluble protein abundance", "setting": "WAS; concentration: 0.5mM", "value": "0.849 ± 0.013"},
      {"measurement": "NP40-soluble protein abundance", "setting": "WAS; concentration: 1mM", "value": "0.973 ± 0.06"},
      {"measurement": "NP40-soluble protein abundance", "setting": "WAS; concentration: 2mM", "value": "0.9283 ± 0.005"},
      {"measurement": "NP40-soluble protein abundance", "setting": "WAS; concentration: 4mM", "value": "0.947 ± 0.017"},
      {"measurement": "NP40-soluble protein abundance", "setting": "WAS; concentration: 6mM", "value": "0.926 ± 0.034"},
      {"measurement": "NP40-soluble protein abundance", "setting": "WAS; concentration: 8mM", "value": "1 ± 0.048"},
      {"measurement": "NP40-soluble protein abundance", "setting": "WAS; concentration: 10mM", "value": "1.01 ± 0.067"}
    ]}
  ]
}
